Assay results published in publication PMC10602555.
The exact form of at least one protein or probe is not confirmed. At least one result comes from cells or an extract, where the contact may be indirect. A weaker result is weaker than the reference pair of the same experiment. At least one verdict rests on a figure or table, not on a statement of the authors.

By UniProt entry, the sequences of proteins in these tests, tags left out. Where a name states a change or a piece, a line headed by the entry shows the natural chain unless it says otherwise.
UniProt P05549: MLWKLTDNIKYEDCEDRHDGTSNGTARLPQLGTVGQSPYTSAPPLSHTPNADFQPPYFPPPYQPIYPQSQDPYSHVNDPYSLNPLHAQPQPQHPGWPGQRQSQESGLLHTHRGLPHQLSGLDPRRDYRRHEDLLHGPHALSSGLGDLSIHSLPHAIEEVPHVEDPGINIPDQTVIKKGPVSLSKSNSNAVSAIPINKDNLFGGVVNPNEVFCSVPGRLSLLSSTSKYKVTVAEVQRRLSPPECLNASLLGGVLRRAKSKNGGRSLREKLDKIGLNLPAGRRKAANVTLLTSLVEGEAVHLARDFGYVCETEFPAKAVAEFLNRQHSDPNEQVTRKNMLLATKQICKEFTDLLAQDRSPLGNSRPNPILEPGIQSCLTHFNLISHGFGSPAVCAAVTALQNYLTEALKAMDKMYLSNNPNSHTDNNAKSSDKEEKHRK

Biological target: TFAP2A (UniProt P05549)
Test: EMSA supershift
Details: EJ nuclear extract, anti-TFAP2A, LightShift Chemiluminescent EMSA kit per manufacturer, unlabeled competitor 100x/200x added 20 min before labeled probe, protein in an extract

Row | Sequence | binding result (G allele preferred) | binding result
1 | CGGCGGGGACGACCTGCAGCTCC (double strand) [rs62483508 A probe] | binds more weakly | –
2 | CGGCGGGGACGGCCTGCAGCTCC (double strand) [rs62483508 G probe] | – | binds
